Consider 86 sequences from the supplement of paper PMC3334620.

In all, about 33,000 sequences were measured (“E-score (-0.5 to 0.5)”: median about -0.016, highest 2% from about 0.3 on). The list shows a part of the results.

This test concerns the target T1, Yer184c (UniProt P39961).
T1 sequence: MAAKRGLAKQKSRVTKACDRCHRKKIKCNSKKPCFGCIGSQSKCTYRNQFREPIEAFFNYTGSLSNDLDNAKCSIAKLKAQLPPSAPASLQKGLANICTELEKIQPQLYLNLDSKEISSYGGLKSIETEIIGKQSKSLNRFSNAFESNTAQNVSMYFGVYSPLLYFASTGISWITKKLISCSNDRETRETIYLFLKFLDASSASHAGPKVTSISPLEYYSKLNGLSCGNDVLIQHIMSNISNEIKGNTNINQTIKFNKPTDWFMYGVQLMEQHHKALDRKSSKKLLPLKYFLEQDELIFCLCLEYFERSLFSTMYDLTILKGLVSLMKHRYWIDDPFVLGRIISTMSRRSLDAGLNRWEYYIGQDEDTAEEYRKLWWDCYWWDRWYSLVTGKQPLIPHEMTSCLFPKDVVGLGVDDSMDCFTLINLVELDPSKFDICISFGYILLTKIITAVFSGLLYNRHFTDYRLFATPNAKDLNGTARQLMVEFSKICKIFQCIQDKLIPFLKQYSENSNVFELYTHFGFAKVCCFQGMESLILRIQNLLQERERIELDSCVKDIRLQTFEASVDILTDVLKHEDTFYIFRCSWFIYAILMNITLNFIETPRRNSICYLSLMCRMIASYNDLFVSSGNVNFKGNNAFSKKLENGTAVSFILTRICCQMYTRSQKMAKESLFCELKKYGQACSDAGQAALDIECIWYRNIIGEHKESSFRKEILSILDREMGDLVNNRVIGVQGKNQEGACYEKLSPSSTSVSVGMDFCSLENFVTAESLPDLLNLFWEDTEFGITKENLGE
In words: PBM E-score (8-mer binding enrichment) (E-score (-0.5 to 0.5)); higher = stronger / more preferred TF binding. As to conditions: protein concentration: 100 nM; construct: GST-full length. A digest of the protocol: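 PURExpress in vitro transcription/translation supplied GST-tagged yeast transcription factors, either full-length or DNA-binding domain. Applied at about 100-200 nM to universal all-10-mer Agilent arrays double-stranded by primer extension, the bound protein was detected with fluorescent anti-GST. E-scores, modified Wilcoxon-Mann-Whitney statistics, were given by the Universal PBM Analysis Suite to ungapped eight-base words pooled with their reverse complements after masliner normalisation.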
AGGCCACC: the “PBM E-score” value was -0.21.
With TCTTGGAA the figure was 0.121.
AGCCGACA: the “PBM E-score” value turned out to be 0.0848.
As for CTATCTCC, the “PBM E-score” value was -0.113.
As for CGGTGATC, the “PBM E-score” value was -0.0365.
TGAACGCA: the “PBM E-score” value is 0.154.
With AATCTTCG the figure was 0.18; with AATCCTCC, -0.0292.
ACGGCTGA: the “PBM E-score” value worked out at 0.0623.
With CCTTCTTC, the “PBM E-score” value was -0.19.
In the case of AGCGACAC, the “PBM E-score” value is -0.136.
Take AACTGTCG: the “PBM E-score” value is -0.00484.
The same measure for ATGTGGGC: -0.217; for CATTACGC: 0.0241; for CACAGCTA: -0.145.
The same measure for ACGGACGG: 0.169; for CGATAGGA: -0.0673; for AATCCCAC: -0.121.
GCTCCAGA: the “PBM E-score” value is -0.124.
For CCCCAGCC, the “PBM E-score” value was -0.152.
Turning to CGTCGCCC, the “PBM E-score” value was -0.18.
In the case of CAGGTGGG, the “PBM E-score” value was -0.164.
For CAAGATAC, the “PBM E-score” value turned out to be 0.0473.
As to ATAAGCAT, the “PBM E-score” value was -0.0356.
The same measure for ATGTATAA: 0.0425; for ATGGAAGA: -0.0181.
The same measure for AAGCGATG: -0.245; for GGAGATTA: 0.00557.
The same measure for GAAAACAA: 0.145; for TGGGCCAA: -0.136; for CAGGTGGA: -0.247.
Take TGTAACAA: the “PBM E-score” value was -0.0314.
Turning to ATCAGAAA, the “PBM E-score” value was determined as 0.0116.
Turning to AACGCCCC, the “PBM E-score” value is -0.0421.
With ATTCTCAG the figure was 0.134; with AATAGGGC, -0.0514.
Take ACTTTCAT: the “PBM E-score” value was -0.0728.
CTAGTGAG: the “PBM E-score” value is -0.0187.
With CTTAACTA, the “PBM E-score” value is -0.0358.
The same measure for ATCTTAAG: 0.0169.
For CGTCTGAC, the “PBM E-score” value was -0.128.
In the case of ATCCCCGA, the “PBM E-score” value was determined as 0.0326.
As to CAATAAGA, the “PBM E-score” value is 0.176.
In the case of ACGGCTCT, the “PBM E-score” value came to 0.123.
As for ATACTTCA, the “PBM E-score” value worked out at 0.0618.
Take ATCTTAAA: the “PBM E-score” value turned out to be 0.161.
For GAGCCCCC, the “PBM E-score” value is -0.396.
For CCTTGCTA, the “PBM E-score” value was -0.0394.
As to CAAGCGGA, the “PBM E-score” value was found to be 0.00133.
With AAAGGCAT, the “PBM E-score” value is 0.141.
Take AGCTGAGC: the “PBM E-score” value was -0.094.
Turning to CTGCGATC, the “PBM E-score” value was -0.0264.
GGAGGCGA: the “PBM E-score” value is -0.165.
The same measure for AATCCTTG: 0.0874; for TCGCCAAA: -0.0461; for ATTTGCTG: 0.0862.
CCTCATTA: the “PBM E-score” value was -0.0862.
With AATATCAC the figure was 0.11; with AAGTCAAC, -0.0826; with CAGCGACC, -0.0648.
As to AGTTCTCG, the “PBM E-score” value was -0.0118.
In the case of AAAGTAAA, the “PBM E-score” value was -0.00686.
As to ATGAGTAA, the “PBM E-score” value worked out at 0.0956.
As for AGAAAGTG, the “PBM E-score” value was -0.192.
ATTGCATC: the “PBM E-score” value is -0.0114.
As to CTTTTCCC, the “PBM E-score” value amounted to 0.0534.
Take GGGGCACC: the “PBM E-score” value is -0.221.
The same measure for ATACAATG: 0.106.
For AATGGGAA, the “PBM E-score” value was -0.226.
With AACATGGC, the “PBM E-score” value is -0.317.
Turning to CGGTGAAA, the “PBM E-score” value is 0.289.
Consider AAGAAGAT, for which the “PBM E-score” value stood at 0.237.
Turning to GCTCCACA, the “PBM E-score” value was -0.163.
Consider GAAAAAGC, for which the “PBM E-score” value is 0.225.
On to ACGAAAAG, for which the “PBM E-score” value worked out at 0.187.
In the case of CAACTGAC, the “PBM E-score” value was -0.106.
With ATCACAAC the figure was 0.0548; with AGAGCCTA, -0.118; with AGCGCCGA, 0.357.
Consider TCTGCAAA, for which the “PBM E-score” value is -0.00157.
GTACATAC: the “PBM E-score” value came to 0.0462.
Consider GCAATAGA, for which the “PBM E-score” value is -0.0314.
Take AACACGTT: the “PBM E-score” value is -0.13.
Take CTCCTTTA: the “PBM E-score” value was -0.0659.
With AAGAAATA the figure was 0.163.
For the sequence ATGCTATA, the “PBM E-score” value came to 0.00492.
